From PubChem BioAssay AID330 (DTP/NCI, 2004)
The list does not hold the whole screen: it is rich in T/C values a quarter to a half above the control, in often repeated tests (any T/C) and in doses without a T/C. Further doses and runs are listed elsewhere. T/C gives the treated animals as a percentage of the vehicle group. Some doses have a count of surviving animals in place of a T/C: the source files T/C as zero there, which appears to mark a toxic dose or a test without result, not a measured value. Some survivor counts are full or nearly so, which does not show that the dose was tolerated: survival well below the control is almost never listed, so the zero probably covers shortened survival too. Survivors were counted at the toxicity check, usually on the fifth day, unless a day is given; later deaths do not show. Schedules are NCI's codes, taken here to give the interval after Q, in days (D) or hours (H), and the number of doses after X. Some entries hold several experiments; their values stand side by side, smallest first. Where survival is the endpoint, the PubChem record calls one and a half times the control and up active, and a quarter to a half above the control has no call in these data; cut-offs in other NCI protocols can differ. Some T/C values are followed by the survivors on the day toxicity was checked, most often the fifth; without a count, all were alive then.

Tested on: P388 leukemia ip, CD2F1 mice, survival T/C
Test: NCI In Vivo Anticancer Drug Screen. Data for tumor model P388 Leukemia (intraperitoneal) in CD2F1 (CDF1) mice
Details: T/C endpoint: median survival time, higher T/C = longer survival
[1] = dose: 12.5 mg/kg/injection, schedule: Q01DX009 (ip), vehicle: saline
[2] = dose: 25.0 mg/kg/injection, schedule: Q01DX009 (ip), vehicle: saline
[3] = dose: 50.0 mg/kg/injection, schedule: Q01DX009 (ip), vehicle: saline
[4] = dose: 100.0 mg/kg/injection, schedule: Q01DX009 (ip), vehicle: saline
[5] = dose: 200.0 mg/kg/injection, schedule: Q01DX009 (ip), vehicle: saline
[6] = dose: 400.0 mg/kg/injection, schedule: Q01DX009 (ip), vehicle: saline
[7] = dose: 60.0 mg/kg/injection, schedule: Q01DX005 (ip), vehicle: saline with Tween-80
[8] = dose: 200.0 mg/kg/injection, schedule: Q04DX002 (ip), vehicle: saline with Tween-80
[9] = dose: 400.0 mg/kg/injection, schedule: Q04DX002 (ip), vehicle: saline with Tween-80
[10] = dose: 400.0 mg/kg/injection, schedule: Q04DX002 (ip), vehicle: saline
[11] = dose: 50.0 mg/kg/injection, schedule: Q01DX009 (ip), vehicle: saline with Tween-80
[12] = dose: 100.0 mg/kg/injection, schedule: Q01DX009 (ip), vehicle: saline with Tween-80
[13] = dose: 200.0 mg/kg/injection, schedule: Q01DX009 (ip), vehicle: saline with Tween-80
[14] = dose: 200.0 mg/kg/injection, schedule: Q04DX002 (ip), vehicle: saline
[15] = dose: 50.0 mg/kg/injection, schedule: Q01DX009 (ip), vehicle: Klucel (hydroxypropylcellulose) (HPC)
[16] = dose: 100.0 mg/kg/injection, schedule: Q01DX009 (ip), vehicle: Klucel (hydroxypropylcellulose) (HPC)
[17] = dose: 400.0 mg/kg/injection, schedule: Q01DX009 (ip), vehicle: Klucel (hydroxypropylcellulose) (HPC)
[18] = dose: 50.0 mg/kg/injection, schedule: Q04DX002 (ip), vehicle: saline
[19] = dose: 200.0 mg/kg/injection, schedule: Q01DX005 (ip), vehicle: saline with Tween-80

For `CCOC(CCl)OCC`, the T/C [1] was 102, 105 [5 of 6 alive], 108, 139 % of control, the T/C [2] was 103, 106, 116, 121 % of control and the T/C [3] was 108, 112, 115, 117, 129 % of control. The survivor count [4] was 2 of 6, the survivor count [5] was 0 of 6 and the survivor count [6] was 0 of 6.

In the case of `c1nnc(NC(Nc2nncs2)C2CCCCC2)s1`, the survivor count [7] was 6 of 6.

With `Fc1c2ccccc2c2ccc3cccc4ccc1c2c43` the T/C [8] was 135 % of control, the T/C [9] was 135 % of control and the survivor count [10] was 0 of 6.

`Cc1cc2cc3cc(C)c(N)cc3nc2cc1N` was tested, and the T/C (dose: 12.5 mg/kg/injection, schedule: Q01DX009 (ip), vehicle: saline with Tween-80) was 130 and 134 % of control, the T/C (dose: 25.0 mg/kg/injection, schedule: Q01DX009 (ip), vehicle: saline with Tween-80) was 136 and 141 % of control and the survivor count [11] was 6 of 6. The survivor count [12] was 4 of 6, the survivor count [4] was 6 of 6 and the survivor count [5] was 4 of 6. For the same compound, the survivor count [6] was 0 of 6.

For `CNC(=O)OCc1c(COC(=O)NC)c(-c2ccc(C)cc2)n(C)c1C`, the T/C (dose: 3.13 mg/kg/injection, schedule: Q01DX009 (ip), vehicle: distilled water + Tween-80) was 134 % of control, the T/C (dose: 6.25 mg/kg/injection, schedule: Q01DX009 (ip), vehicle: distilled water + Tween-80) was 125 and 138 % of control and the T/C (dose: 12.5 mg/kg/injection, schedule: Q01DX009 (ip), vehicle: distilled water + Tween-80) was 134 and 144 % of control. The T/C (dose: 25.0 mg/kg/injection, schedule: Q01DX009 (ip), vehicle: distilled water + Tween-80) was 141 and 144 % of control, the survivor count (dose: 50.0 mg/kg/injection, schedule: Q01DX009 (ip), vehicle: distilled water + Tween-80) was 3 of 6 and 5 of 6 and the survivor count (dose: 100.0 mg/kg/injection, schedule: Q01DX009 (ip), vehicle: distilled water + Tween-80) was 0 of 6.

For `O=c1nc2n(c3ncccc13)CC=NN2`, the survivor count (dose: 240.0 mg/kg/injection, schedule: Q01DX005 (ip), vehicle: saline with Tween-80) was 3 of 6.

In the case of `Cn1c(O)c(N=O)c(=O)n(C)c1=O`, the survivor count [13] was 0 of 6.

For `O=C(O)C1CC(c2ccccc2)=NN1c1ccccc1` (centres undefined), the T/C (dose: 200.0 mg/kg/injection, schedule: Q01DX009 (ip), vehicle: water) was 125 and 128 % of control and the survivor count (dose: 300.0 mg/kg/injection, schedule: Q01DX009 (ip), vehicle: water) was 3 of 6.

In the case of `CN(C)CCC(CCc1ccccc1)OC(=O)c1ccc([N+](=O)[O-])cc1` (centres undefined), the survivor count [14] was 3 of 6.

With `CC(C)(C)C1CCC(P(C)(C)=S)CC1` (centres undefined) the survivor count [15] was 6 of 6 and the survivor count [16] was 6 of 6.

In the case of `C=Cc1cncc2c1CCOC2=O`, the survivor count (dose: 15.0 mg/kg/injection, schedule: Q01DX005 (ip), vehicle: Klucel (hydroxypropylcellulose) (HPC)) was 6 of 6.

With `NC1=NC2C(Cl)=CC=CC2S1` (centres undefined) the survivor count (dose: 200.0 mg/kg/injection, schedule: Q01DX009 (ip), vehicle: Klucel (hydroxypropylcellulose) (HPC)) was 1 of 6.

For `Nc1ccc(-c2csc(COc3ccccc3)n2)cc1`, the survivor count [17] was 0 of 6.

In the case of `CC(=O)OCCN1CCN(CCCN2c3ccccc3Sc3ccc(C(F)(F)F)cc32)CC1`, the survivor count [1] was 4 of 6, the survivor count [2] was 3 of 6 and the T/C (dose: 25.0 mg/kg/injection, schedule: Q04DX002 (ip), vehicle: saline) was 127 and 132 % of control. The survivor count [3] was 0 of 6, the T/C [18] was 143 % of control and the survivor count [18] was 5 of 6. The survivor count (dose: 100.0 mg/kg/injection, schedule: Q04DX002 (ip), vehicle: saline) was 4 of 6, the survivor count [14] was 0 of 6 and the survivor count [10] was 0 of 6.

In the case of `C[n+]1noc([O-])c1-c1ccccc1`, the survivor count [13] was 5 of 6.

With `NC(N)=NN=c1/c(=N\N=C(N)N)c2ccccc2/c1=N/N=C(N)N` the survivor count (dose: 50.0 mg/kg/injection, schedule: Q01DX001 (ip), vehicle: saline) was 2 of 6 and the survivor count (dose: 100.0 mg/kg/injection, schedule: Q01DX001 (ip), vehicle: saline) was 0 of 6.

`O=C(Nc1ccc(C(=O)O)cc1)Nc1ccc(C(=O)O)cc1` was tested, and the survivor count (dose: 400.0 mg/kg/injection, schedule: Q04DX002 (ip), vehicle: Klucel (hydroxypropylcellulose) (HPC)) was 4 of 6.

`NOCc1ccccc1` was tested, and the survivor count [17] was 0 of 6.

In the case of `CC(C)CC([NH-])C(=O)O.[C-]#[O+].[C-]#[O+].[Rh]` (centres undefined), the survivor count [11] was 2 of 6, the survivor count [12] was 0 of 6 and the survivor count [13] was 0 of 6.

For `COc1ccccc1N=Nc1cc(S(=O)(=O)O)c2ccccc2c1O`, the survivor count [6] was 0 of 6.

In the case of `Cc1ccc(C(O)(CNC2CCCCC2)c2ccccc2)cc1` (centres undefined), the survivor count (dose: 100.0 mg/kg/injection, schedule: Q01DX009 (ip), vehicle: saline sonified) was 6 of 6.

For `CCc1ccc(NC(=O)NC(=O)c2c(F)cccc2F)cc1`, the survivor count [2] was 6 of 6.

In the case of `CC(C)N=C(C1=C(O)c2ccccc2C1=O)c1ccccc1`, the survivor count [8] was 3 of 6 and the survivor count [9] was 0 of 6.

With `O=C(NN1C(=O)CSC1c1ccc(Cl)cc1Cl)c1ccncc1` (centres undefined) the survivor count [7] was 6 of 6.

With `Cc1ccc(S(=O)(=O)N(O)c2ccc(C)cc2C)cc1` the survivor count [19] was 5 of 5.

For `CC(=O)N1CCCC2=C1CCCC2`, the survivor count (dose: 200.0 mg/kg/injection, schedule: Q04DX003 (ip), vehicle: saline) was 5 of 6.

With `NC(=O)c1cc([N+](=O)[O-])cc([N+](=O)[O-])c1Cl` the survivor count (dose: 12.5 mg/kg/injection, schedule: Q01DX009 (ip), vehicle: Klucel (hydroxypropylcellulose) (HPC)) was 3 of 6, the survivor count (dose: 25.0 mg/kg/injection, schedule: Q01DX009 (ip), vehicle: Klucel (hydroxypropylcellulose) (HPC)) was 0 of 6 and the survivor count [15] was 0 of 6. The survivor count [16] was 0 of 6.

For `Cc1cc2nc(CN(CCN(Cc3nc4cc(C)c(C)cc4[nH]3)Cc3nc4cc(C)c(C)cc4[nH]3)Cc3nc4cc(C)c(C)cc4[nH]3)[nH]c2cc1C`, the survivor count (dose: 100.0 mg/kg/injection, schedule: Q01DX001 (ip), vehicle: saline with Tween-80) was 2 of 6, the survivor count (dose: 200.0 mg/kg/injection, schedule: Q01DX001 (ip), vehicle: saline with Tween-80) was 0 of 6 and the survivor count (dose: 400.0 mg/kg/injection, schedule: Q01DX001 (ip), vehicle: saline with Tween-80) was 0 of 6.

In the case of `NC1[N-]C(C2CCCC[N-]2)CC2CCCCC21.NC1[N-]C(C2CCCC[N-]2)CC2CCCCC21.O=[N+]([O-])O.[Cu+]` (centres undefined), the survivor count (dose: 100.0 mg/kg/injection, schedule: Q04DX002 (ip), vehicle: suspension in saline) was 0 of 6, the survivor count (dose: 200.0 mg/kg/injection, schedule: Q04DX002 (ip), vehicle: suspension in saline) was 0 of 6 and the survivor count (dose: 400.0 mg/kg/injection, schedule: Q04DX002 (ip), vehicle: suspension in saline) was 0 of 6.

With `C=C1CCN(c2ccc(N3CCC(=C)C3=O)cc2)C1=O` the survivor count (dose: 12.5 mg/kg/injection, schedule: Q01DX009 (ip), vehicle: saline + alcohol) was 6 of 6.

In the case of `CC1(c2cccc[n+]2Cc2ccc(Cl)c(Cl)c2)OCCO1`, the survivor count (dose: 50.0 mg/kg/injection, schedule: Q01DX005 (ip), vehicle: saline) was 3 of 5.

`CCC(c1ccc(OC)cc1)C(NC(=S)NCc1ccccc1)c1ccc(OC)cc1` (centres undefined) was tested, and the survivor count [9] was 6 of 6.

In the case of `O=C1c2ccccc2C(=O)N1c1ccc(Nc2nc(Nc3ccc(N4C(=O)c5ccccc5C4=O)cc3)nc(N(C3CCCCC3)C3CCCCC3)n2)cc1`, the survivor count [19] was 6 of 6.

`COc1cc(OC)c(C(C)=O)c(OC)c1OC` was tested, and the survivor count (dose: 400.0 mg/kg/injection, schedule: Q01DX009 (ip), vehicle: saline with Tween-80) was 3 of 6.

In the case of `C(/CSC/C=N/Nc1ccccc1)=N\Nc1ccccc1`, the survivor count [5] was 6 of 6.
